The list is a part of this screen's results and no random one: it covers a few groups of compounds. Other doses and runs of a compound may be missing. T/C is the treated group as % of the vehicle group. Where survival is the endpoint, the PubChem record calls one and a half times the control and up active, and a quarter to a half above the control has no call in these data; cut-offs in other NCI protocols can differ. Schedule codes are those of the source, read here as Q, the interval in days (D) or hours (H), X, the number of doses. Some entries show no survivor count and are marked so; the dose need not have been tolerated. Some entries hold several experiments; the values are given in rising order.
Tested on: L1210 leukemia ip in BDF1 mice, survival T/C
Test: NCI In Vivo Anticancer Drug Screen. Data for tumor model L1210 Leukemia (intraperitoneal) in B6D2F1 (BDF1) mice
Settings: higher T/C = longer survival

Structure (SMILES): CC(=O)OCC12CCC(C)=CC1OC1C(O)C(OC(C)=O)C2(C)C12CO2 (stereo not given)
- T/C (T/C endpoint: mean survival time, dose: 10.5 mg/kg/injection, schedule: Q01DX009 (ip), vehicle: saline with Tween-80): 111 % of control [survivor count not shown]
- T/C (T/C endpoint: mean survival time, dose: 62.5 micrograms/kg/injection, schedule: Q03HX008 (ip), vehicle: saline): 105 % of control [survivor count not shown]
- T/C (T/C endpoint: mean survival time, dose: 62.5 micrograms/kg/injection, schedule: Q03HX016 (ip), vehicle: saline): 100 % of control [survivor count not shown]
- T/C (T/C endpoint: mean survival time, dose: 125.0 micrograms/kg/injection, schedule: Q03HX008 (ip), vehicle: saline): 114 % of control [survivor count not shown]
- T/C (T/C endpoint: mean survival time, dose: 125.0 micrograms/kg/injection, schedule: Q03HX016 (ip), vehicle: saline): 109 % of control [survivor count not shown]
- T/C (T/C endpoint: mean survival time, dose: 125.0 micrograms/kg/injection, schedule: Q03HX024 (ip), vehicle: saline): 112 % of control [survivor count not shown]
- T/C (T/C endpoint: mean survival time, dose: 250.0 micrograms/kg/injection, schedule: Q03HX008 (ip), vehicle: saline): 109 % of control [survivor count not shown]
- T/C (T/C endpoint: mean survival time, dose: 250.0 micrograms/kg/injection, schedule: Q03HX016 (ip), vehicle: saline): 117 % of control [survivor count not shown]
- T/C (T/C endpoint: mean survival time, dose: 250.0 micrograms/kg/injection, schedule: Q03HX024 (ip), vehicle: saline): 115 % of control [survivor count not shown]
- T/C (T/C endpoint: mean survival time, dose: 500.0 micrograms/kg/injection, schedule: Q03HX008 (ip), vehicle: saline): 116 % of control [survivor count not shown]
- T/C (T/C endpoint: mean survival time, dose: 500.0 micrograms/kg/injection, schedule: Q03HX016 (ip), vehicle: saline): 123 % of control [survivor count not shown]
- T/C (T/C endpoint: mean survival time, dose: 500.0 micrograms/kg/injection, schedule: Q03HX024 (ip), vehicle: saline): 135 % of control [survivor count not shown]
- T/C (T/C endpoint: mean survival time, dose: 1000.0 micrograms/kg/injection, schedule: Q03HX024 (ip), vehicle: saline): 142 % of control [survivor count not shown]
- T/C (T/C endpoint: median survival time, dose: 0.05 mg/kg/injection, schedule: Q01DX009 (ip), vehicle: saline): 100 [survivor count not shown] and 105 % of control [survivor count not shown]
- T/C (T/C endpoint: median survival time, dose: 0.1 mg/kg/injection, schedule: Q01DX009 (ip), vehicle: saline): 110 [survivor count not shown] and 157 % of control [survivor count not shown]
- T/C (T/C endpoint: median survival time, dose: 0.2 mg/kg/injection, schedule: Q01DX009 (ip), vehicle: saline): 115 % of control [survivor count not shown]
- T/C (T/C endpoint: median survival time, dose: 0.4 mg/kg/injection, schedule: Q01DX009 (ip), vehicle: saline): 110 [survivor count not shown] and 135 % of control [survivor count not shown]
- T/C (T/C endpoint: median survival time, dose: 0.5 mg/kg/injection, schedule: Q01DX009 (ip), vehicle: saline, evaluated on day 5): 115 % of control [survivor count not shown]
- T/C (T/C endpoint: median survival time, dose: 0.5 mg/kg/injection, schedule: Q01DX009 (ip), vehicle: saline, evaluated on day 19): 110 % of control [survivor count not shown]
- T/C (T/C endpoint: median survival time, dose: 0.5 mg/kg/injection, schedule: Q01DX009 (ip), vehicle: saline, evaluated on day 30): 110 % of control [survivor count not shown]
- T/C (T/C endpoint: median survival time, dose: 0.8 mg/kg/injection, schedule: Q01DX009 (ip), vehicle: saline): 126 [survivor count not shown] and 135 % of control [survivor count not shown]
- T/C (T/C endpoint: median survival time, dose: 1.0 mg/kg/injection, schedule: Q01DX009 (ip), vehicle: saline, evaluated on day 5): 120 % of control [survivor count not shown]
- T/C (T/C endpoint: median survival time, dose: 1.0 mg/kg/injection, schedule: Q01DX009 (ip), vehicle: saline, evaluated on day 19): 126 % of control [survivor count not shown]
- T/C (T/C endpoint: median survival time, dose: 1.0 mg/kg/injection, schedule: Q01DX009 (ip), vehicle: saline, evaluated on day 30): 120 % of control [survivor count not shown]
- T/C (T/C endpoint: median survival time, dose: 1.6 mg/kg/injection, schedule: Q01DX009 (ip), vehicle: saline): 142 [survivor count not shown] and 157 % of control [survivor count not shown]
- T/C (T/C endpoint: median survival time, dose: 2.0 mg/kg/injection, schedule: Q01DX009 (ip), vehicle: saline, evaluated on day 5): 121 % of control [survivor count not shown]
- T/C (T/C endpoint: median survival time, dose: 2.0 mg/kg/injection, schedule: Q01DX009 (ip), vehicle: saline, evaluated on day 19): 136 % of control [survivor count not shown]
- T/C (T/C endpoint: median survival time, dose: 2.0 mg/kg/injection, schedule: Q01DX009 (ip), vehicle: saline, evaluated on day 30): 105 % of control [survivor count not shown]
- T/C (T/C endpoint: median survival time, dose: 2.0 mg/kg/injection, schedule: Q04DX003 (ip), vehicle: saline): 108 % of control [survivor count not shown]
- T/C (T/C endpoint: median survival time, dose: 4.0 mg/kg/injection, schedule: Q01DX009 (ip), vehicle: saline, evaluated on day 19): 100 % of control [survivor count not shown]
- T/C (T/C endpoint: median survival time, dose: 4.0 mg/kg/injection, schedule: Q04DX003 (ip), vehicle: saline, evaluated on day 35): 109 % of control [survivor count not shown]
- T/C (T/C endpoint: median survival time, dose: 4.0 mg/kg/injection, schedule: Q04DX003 (ip), vehicle: saline, evaluated on day 60): 117 % of control [survivor count not shown]
- T/C (T/C endpoint: median survival time, dose: 8.0 mg/kg/injection, schedule: Q04DX003 (ip), vehicle: saline, evaluated on day 35): 111 % of control [survivor count not shown]
- T/C (T/C endpoint: median survival time, dose: 8.0 mg/kg/injection, schedule: Q04DX003 (ip), vehicle: saline, evaluated on day 60): 120 % of control [survivor count not shown]
- T/C (T/C endpoint: median survival time, dose: 16.0 mg/kg/injection, schedule: Q04DX003 (ip), vehicle: saline): 126 % of control [survivor count not shown]
